# Experimental data reported in PubChem BioAssay AID540256 (National Center for Advancing Translational Sciences (NCATS), 2011).
# The whole screen tested about 300,000 compounds, of which about 3,700 (1.2%) were called active. Inconclusive means that the source gave no clear call. Such entries were picked first, then a sample of the others. The call rests on the fitted dose curve; tested in HEK293 cells. A potency beside an inconclusive call is a rough fit, not a confirmed value.
# Test: qHTS for Inhibitors of binding or entry into cells for Lassa Virus; further: nearly all actives have a fitted effect of over 50% in size
# Details: Lassa virus pseudotype entry inhibition, cell reporter; activity change, negative = inhibition: at 37.9 µM (top of the series) unless noted
# On the % scale 0 is the no-effect control and ±100 the full control effect; potency means the concentration at half of the fitted maximal effect.
Structure (SMILES),Potency,"activity change, negative = inhibition"
CN(C)S(=O)(=O)c1cccc(NC(=S)N/N=C/c2cc(Br)ccc2O)c1,"inconclusive: 10 µM [inhibitor, partial curve]",–
CCC1CCCCN1c1cc(C)nc2cc(-c3cccc(C)c3)nn12 (configuration not stated),"inconclusive: 35.5 µM [inhibitor, single point]",–
COc1cc(C2c3c(-c4c(C)cc(C)cc4O)n[nH]c3C(=O)N2CCCOC(C)C)cc(OC)c1OC (configuration not stated),"inconclusive: 20 µM [inhibitor, single point]",–
O=C(O)c1ccc(C=C(c2nc3ccccc3s2)c2nc3ccccc3s2)cc1,"inconclusive: 3.55 µM [activator, single point]",–
CCOC(=O)Cn1c(-c2cccnc2Cl)nc2cc(Cl)c(Cl)cc21,–,inactive: -10.4%
CCN(c1ccccc1)c1nc2ccsc2c(=O)s1,–,inactive: -21.1%
CS(=O)(=O)N(Cc1ccc(C(=O)N2CCc3ccccc3C2)cc1)c1ccccc1,"inconclusive: 12.6 µM [inhibitor, partial curve, poor fit]",–
CCC1CN(S(=O)(=O)c2ccc3c(c2)NC(=O)CC(=O)N3)c2cc(Cl)ccc2O1 (configuration not stated),"inconclusive: 7.08 µM [inhibitor, full curve, poor fit]",–
COc1ccc(OC)c(C(=O)N2CCC(C(=O)c3ccc(F)cc3)CC2)c1,–,inactive: 4.19%
Cc1ccc(-n2nnnc2CSc2nnc(-c3ccc(O)cc3)o2)cc1,"inconclusive: 29.1 µM [inhibitor, single point]",–
C=CCn1c(COc2ccccc2)nnc1SCC(=O)N/N=C/c1cc(Cl)ccc1O,"inconclusive: 11.2 µM [inhibitor, partial curve, poor fit]",–
CCOc1ccc(NC(=O)c2cnn3c2NC(C)=C(C(=O)Nc2ccc(Cl)cc2)C3c2ccc(OC)c(OC)c2)cc1 (configuration not stated),"inconclusive: 12.6 µM [inhibitor, partial curve, poor fit]",–
CCCn1nnc(NC(=O)c2cccc(Cl)c2)n1,"inconclusive: 8.91 µM [activator, partial curve, poor fit]",–
O=C(Nc1cccc2c1CCCC2)C1CCN(c2nnnn2-c2ccccc2)CC1,"inconclusive: 2.59 µM [inhibitor, partial curve, poor fit]",–
O=C(c1cn(Cc2ccccc2)c2ccccc12)C1CC1,"inconclusive: 3.16 µM [inhibitor, single point]",–
Cc1cc(NC(=O)c2ccccc2F)cc(C)c1OCC(=O)N1CCOCC1,–,inactive: -18.8%
COc1ccc(NC(=O)c2[nH]c(C)c(C(C)=O)c2C)cc1Cl,"inconclusive: 0.562 µM [activator, partial curve, poor fit]",–

# Structures listed so far containing an aryl methoxy group, in the order listed:
Structure (SMILES),Potency,"activity change, negative = inhibition"
COc1cc(C2c3c(-c4c(C)cc(C)cc4O)n[nH]c3C(=O)N2CCCOC(C)C)cc(OC)c1OC (configuration not stated),"inconclusive: 20 µM [inhibitor, single point]",–
COc1ccc(OC)c(C(=O)N2CCC(C(=O)c3ccc(F)cc3)CC2)c1,–,inactive: 4.19%
CCOc1ccc(NC(=O)c2cnn3c2NC(C)=C(C(=O)Nc2ccc(Cl)cc2)C3c2ccc(OC)c(OC)c2)cc1 (configuration not stated),"inconclusive: 12.6 µM [inhibitor, partial curve, poor fit]",–
COc1ccc(NC(=O)c2[nH]c(C)c(C(C)=O)c2C)cc1Cl,"inconclusive: 0.562 µM [activator, partial curve, poor fit]",–
